Values from PubChem BioAssay AID493246 (Drosophila RNAi Screening Center, 2011)

Aim: 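Genes fly cells need to grow and stay alive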 (primary screen)
Cell system: Drosophila Kc and S2R+ cells
Reagent: long dsRNA against Drosophila genes
Measured: 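Cell number per well after knock-down, printed as raw plate values; calls were based on per-plate z-scores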
Direction: Kc cell number and S2R+ cell number: higher = more cells remaining
Active means: 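Counted as a hit if cell number falls by a z-score of at least 3 within its plate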
The screen tested about 21,000 reagents; this is an unselected part of those that have a named target and a result. Of all reagents, 429 (2%) were called active. 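Values are raw and not normalised between plates; calls rest on per-plate z-scores that were not deposited.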 Names joined by + are all predicted targets of the reagent. No sequences are given here. Not given: the amount of reagent, the time to read-out.

gene,DRSC id,"Kc cell number, rep 1","Kc cell number, rep 2","S2R+ cell number, rep 1","S2R+ cell number, rep 2",activity call
CG7639,DRSC07026,1.47e6,1.52e6,1.33e6,1.40e6,inactive
Adh + Adhr,DRSC01862,1.22e6,1.33e6,1.35e6,1.31e6,inactive
Adh + Adhr,DRSC01863,1.63e6,1.62e6,1.39e6,1.57e6,inactive
CG13084,DRSC02188,1.53e6,1.59e6,1.35e6,4.52e5,inactive
Fdh,DRSC16670,1.64e6,1.68e6,1.34e6,1.56e6,inactive
cato,DRSC07589,1.54e6,1.66e6,1.22e6,1.38e6,inactive
pnt,DRSC17028,1.26e6,1.29e6,7.07e5,7.93e5,inactive
ocm,DRSC04360,9.53e5,1.04e6,1.11e6,1.15e6,inactive
CG13449,DRSC09996,1.53e6,1.52e6,1.18e6,1.35e6,inactive
Elp1,DRSC14250,1.54e6,1.62e6,1.18e6,1.23e6,inactive
CG11699,DRSC19419,1.59e6,1.53e6,1.04e6,1.12e6,inactive
CG31809,DRSC01561,1.44e6,1.49e6,9.04e5,1.09e6,inactive
KdelR,DRSC03353,1.22e6,1.36e6,1.13e6,1.22e6,inactive
Cpr72Eb,DRSC09870,1.50e6,1.78e6,1.33e6,1.48e6,inactive
Ccm3,DRSC15711,1.36e6,1.37e6,1.00e6,8.79e5,inactive
CG1138,DRSC12530,1.45e6,1.56e6,1.33e6,1.46e6,inactive
RyR,DRSC07543,1.51e6,1.51e6,1.22e6,1.32e6,inactive
CG17385,DRSC06664,1.83e6,1.73e6,1.40e6,1.57e6,inactive
CG14989,DRSC08448,1.55e6,1.58e6,1.28e6,1.11e6,inactive
CG17028,DRSC10239,1.27e6,1.22e6,1.23e6,1.34e6,inactive
Fst,DRSC16491,1.60e6,1.66e6,1.27e6,1.33e6,inactive
cyc,DRSC11337,1.52e6,1.52e6,1.34e6,1.38e6,inactive
Desi,DRSC14909,1.46e6,1.46e6,1.24e6,1.38e6,inactive
CG10481,DRSC02063,1.60e6,1.64e6,1.24e6,2.60e5,inactive
NtR,DRSC04628,1.66e6,1.70e6,1.32e6,4.62e5,inactive
retn,DRSC04679,1.55e6,1.58e6,1.24e6,1.37e6,inactive
Cpr47Ee,DRSC06343,6.21e5,9.29e5,5.29e5,6.37e5,active
Arf6,DRSC05921,1.67e6,1.68e6,1.39e6,1.50e6,inactive
CG12917,DRSC06231,1.46e6,1.50e6,1.26e6,1.37e6,inactive
CG31871,DRSC02567,1.61e6,1.65e6,1.20e6,1.46e6,inactive
CG31871,DRSC02571,1.60e6,1.61e6,1.25e6,1.42e6,inactive
dre4,DRSC08714,1.92e6,1.89e6,7.85e5,1.21e6,inactive
rudhira,DRSC19821,2.60e5,,4.58e5,,active
Tmem131,DRSC07154,1.29e6,1.36e6,1.18e6,1.16e6,inactive
CG11109,DRSC11633,1.86e6,1.88e6,1.52e6,1.52e6,inactive
CG33140,DRSC06030,1.49e6,1.52e6,1.18e6,1.29e6,inactive

Individual results from the entries so far.
Entry of CG33140 [DRSC06030] in “S2R+ cell number, rep 2”: 1.29e6
Entry for Ccm3 [DRSC15711] under “Kc cell number, rep 1”: 1.36e6
Value for CG13084 [DRSC02188] in “S2R+ cell number, rep 2”: 4.52e5
For “Kc cell number, rep 2”, retn [DRSC04679] reads 1.58e6

More results:
gene,DRSC id,"Kc cell number, rep 1","Kc cell number, rep 2","S2R+ cell number, rep 1","S2R+ cell number, rep 2",activity call
bic,DRSC07584,1.44e6,1.47e6,1.03e6,1.15e6,inactive
eco,DRSC11006,1.31e6,1.35e6,1.01e6,1.02e6,inactive
S-Lap7,DRSC06374,1.57e6,1.52e6,1.13e6,1.29e6,inactive
CG34249 (retired record),DRSC09431,1.37e6,1.48e6,1.03e6,1.24e6,inactive
CG8197,DRSC07105,1.50e6,1.52e6,1.26e6,1.34e6,inactive
CG13048,DRSC09929,1.55e6,1.49e6,1.35e6,1.42e6,inactive
Slbp,DRSC16863,1.37e6,1.41e6,1.02e6,1.12e6,inactive
CG18563,DRSC02676,1.79e6,1.85e6,1.40e6,1.55e6,inactive
CG12539,DRSC19470,1.51e6,1.52e6,1.05e6,1.20e6,inactive
tous,DRSC04464,1.39e6,1.46e6,1.19e6,1.23e6,inactive
CG11342,DRSC08175,1.68e6,1.55e6,1.10e6,1.19e6,inactive
CG17168,DRSC20904,1.44e6,1.51e6,1.02e6,1.16e6,inactive
Rrp4,DRSC04434,1.35e6,1.42e6,1.14e6,1.14e6,inactive
dind,DRSC16294,1.56e6,1.60e6,1.10e6,1.17e6,inactive
sds22,DRSC17052,1.24e6,1.27e6,1.18e6,1.23e6,inactive
Sema2a,DRSC07551,1.38e6,1.43e6,1.16e6,1.23e6,inactive
spas,DRSC15929,1.68e6,1.74e6,1.34e6,1.45e6,inactive
Eph,DRSC17164,1.79e6,1.82e6,1.11e6,1.24e6,inactive
CG11825,DRSC06090,1.51e6,1.63e6,1.24e6,1.38e6,inactive
qjt,DRSC10060,1.44e6,1.48e6,1.33e6,1.48e6,inactive
St2,DRSC15142,1.81e6,2.05e6,1.35e6,1.53e6,inactive
Syt14,DRSC12331,1.39e6,1.49e6,1.27e6,1.30e6,inactive
CG17221,DRSC00487,1.53e6,1.51e6,1.15e6,1.24e6,inactive
